For test [1], the target named is Mouse BiP (residues 27-655) (mouse) (UniProt P20029). In words: fluorescence polarisation; FITC-labeled client preincubated with BiP, Grp94 then added; BiP and Grp94 varied together (Fig. 6A, B; apparent) or 5 μM BiP and 5 μM Grp94 monomer (ΔP, Fig. 6C), with and without inhibitors; ADP conditions; 60 mM HEPES pH 7.0, 50 mM KCl, 5 mM MgCl2, 1 mM DTT, 0.75 mg/mL BSA, 1 mM ADP, 30 °C; both purified. On the technique in general: Polarisation of emitted light reports the rotation of a fluorescent probe.

Amino acid sequences for entries named in this document (tags omitted). A change or cut given only in a name is not applied to a line headed by its entry. Chains listed by the source or under a name are the forms on record and can include a tag or linker. Residues count along the entry.
UniProt P20029, residues 27-655: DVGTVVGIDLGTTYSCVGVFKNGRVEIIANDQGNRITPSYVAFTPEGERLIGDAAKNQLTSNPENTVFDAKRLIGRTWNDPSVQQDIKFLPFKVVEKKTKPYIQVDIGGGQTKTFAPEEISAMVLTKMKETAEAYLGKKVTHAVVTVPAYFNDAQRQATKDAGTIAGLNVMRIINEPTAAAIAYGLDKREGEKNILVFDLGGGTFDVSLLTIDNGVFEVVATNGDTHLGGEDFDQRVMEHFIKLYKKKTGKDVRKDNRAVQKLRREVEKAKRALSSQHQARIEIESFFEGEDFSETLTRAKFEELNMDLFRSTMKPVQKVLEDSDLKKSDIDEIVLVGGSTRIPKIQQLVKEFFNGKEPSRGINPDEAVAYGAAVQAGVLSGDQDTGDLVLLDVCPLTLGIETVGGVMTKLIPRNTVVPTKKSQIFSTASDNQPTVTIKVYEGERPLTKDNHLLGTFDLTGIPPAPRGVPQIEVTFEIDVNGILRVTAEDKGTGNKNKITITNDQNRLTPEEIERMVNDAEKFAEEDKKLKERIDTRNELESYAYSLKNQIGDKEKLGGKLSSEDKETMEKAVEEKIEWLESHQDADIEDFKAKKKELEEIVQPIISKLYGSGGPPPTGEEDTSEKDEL
proIGF2 (P01344, residues 25-180): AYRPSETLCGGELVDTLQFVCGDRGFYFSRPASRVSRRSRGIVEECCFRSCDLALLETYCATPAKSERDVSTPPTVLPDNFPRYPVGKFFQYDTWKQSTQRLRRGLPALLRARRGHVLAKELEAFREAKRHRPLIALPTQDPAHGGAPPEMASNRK
proIGF2_(92-120) fragment (Ext. Site 1), FITC-labeled (P01344, form named): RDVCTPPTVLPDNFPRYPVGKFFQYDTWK
Grp94_(K467A) (P08113, form named): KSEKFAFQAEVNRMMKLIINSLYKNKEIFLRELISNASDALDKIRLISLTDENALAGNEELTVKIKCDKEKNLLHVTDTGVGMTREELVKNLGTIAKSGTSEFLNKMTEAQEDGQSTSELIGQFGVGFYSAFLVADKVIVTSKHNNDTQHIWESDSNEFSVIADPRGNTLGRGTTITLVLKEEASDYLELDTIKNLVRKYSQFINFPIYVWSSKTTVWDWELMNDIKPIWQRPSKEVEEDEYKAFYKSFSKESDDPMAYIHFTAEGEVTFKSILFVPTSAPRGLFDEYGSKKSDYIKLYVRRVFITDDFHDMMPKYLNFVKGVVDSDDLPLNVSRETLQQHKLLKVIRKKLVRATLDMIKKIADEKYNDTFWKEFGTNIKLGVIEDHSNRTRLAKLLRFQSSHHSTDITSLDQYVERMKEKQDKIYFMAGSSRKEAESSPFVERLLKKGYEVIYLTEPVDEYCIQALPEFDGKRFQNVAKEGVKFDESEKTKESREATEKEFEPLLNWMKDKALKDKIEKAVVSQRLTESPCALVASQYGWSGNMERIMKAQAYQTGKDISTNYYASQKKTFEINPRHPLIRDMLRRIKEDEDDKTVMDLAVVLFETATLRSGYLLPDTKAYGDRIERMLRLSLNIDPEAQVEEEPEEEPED

Test [2] deals with proIGF2_(92-120) fragment (Ext. Site 1), FITC-labeled (UniProt P01344). In words: fluorescence polarisation; FITC-labeled client constructs, BiP titrated; ATP conditions (Supplementary Fig. 12D); both purified.
Another test addresses proIGF2 (UniProt P01344). In words: dynamic light scattering; mean hydrodynamic radius at a concentration of 1 μM; both purified.

These are yes or no findings as the source states them, for the method shown. Some results given as binding are weak or reduced against the parent protein; the word gives no strength.

Consider “Grp94_(K467A) (from UniProt P08113 72-765)”, for which the binding result in test [1] is on record as “no binding (tested: 5 μM Grp94 monomer)”. For the substance “Mouse BiP (residues 27-655) (from UniProt P20029 27-655)”, the binding result in test [2] is given as “binds”. Consider proIGF2 (from UniProt P01344 25-180), for which, in the test with proIGF2, the binding entry was “binds”.

The values are drawn from PMC12000397.
